Where a name gives a salt, the structure may show the parent alone. Some of the results follow. Cut-off read from the data, not from the text of the source: active = 0.7 or more and inactive = the rest. Single values are uncertain, as repeats are few or missing.
Tested on: MiaPaCa-2 CLSA-25
Assay: cell death relative to DMSO vehicle (fraction); higher = more cytotoxic
Conditions: 5 µM; treatment time 48 h; medium cystine 25 µM

**Q.** For CC(C)C[C@@H]1NC(=O)[C@@H](C(C)C)NC(=O)[C@@H]2CCCN2C(=O)[C@@H](CC(=O)O)NC(=O)[C@@H](Cc2c[nH]c3ccccc23)NC1=O, which cell death is on record?
**A.** inactive: 0.172

**Q.** Which cell death does the source give for O=C(/C=C/c1ccc2ccc(C(F)(F)F)cc2n1)c1ccncc1 here?
**A.** active: 0.915

**Q.** Which cell death does the source give for CC1(C)C(O[C@@H]2OC[C@@H](O)[C@H](O)[C@H]2O)CC[C@]23CC24CC[C@]2(C)[C@@H]([C@@]5(C)CC[C@@H](C(C)(C)O)O5)[C@H](O)C[C@@]2(C)C4C[C@@H](O[C@@H]2O[C@H](CO)[C@@H](O)[C@H](O)[C@H]2O)C13 (stereo partly specified) [Astragaloside IV] here?
**A.** inactive: -0.00615

**Q.** With O=C(CN1CCN(C(=O)c2ccco2)CC1)Nc1cc(C(F)(F)F)ccc1Cl as the molecule, how does the cell death read?
**A.** active: 0.71

**Q.** For C[C@@]12C[C@@]3(O)O[C@@H](O1)[C@]1(COC(=O)c4ccccc4)[C@H]3C[C@@]12O[C@@H]1O[C@H](CO)[C@@H](O)[C@H](O)[C@H]1O [Paeoniflorin], which cell death is on record?
**A.** inactive: 0.133

**Q.** How did the cell death turn out when CC(C)OC(=O)N1CCC(Oc2ncnc3c2cnn3-c2ccc(S(C)(=O)=O)cc2F)CC1 was run?
**A.** inactive: 0.11

**Q.** With CC(=O)OCC(=O)[C@@]12OC(C)(C)O[C@@H]1C[C@H]1[C@@H]3C[C@H](F)C4=CC(=O)C=C[C@]4(C)[C@@]3(F)[C@@H](O)C[C@@]12C [Fluocinonide] as the molecule, how does the cell death read?
**A.** inactive: 0.195

**Q.** With Nc1cc(-c2ccncc2)c[nH]c1=O [Amrinone] as the molecule, how does the cell death read?
**A.** inactive: -0.0118

**Q.** Which cell death does the source give for O=c1c(-n2ccnn2)c[nH]n1-c1cc(N2CCOCC2)ncn1 [Molidustat] here?
**A.** inactive: 0.167

**Q.** COc1ccc(NC(=O)c2ccc(C(=N)N(C)C)cc2)c(C(=O)Nc2ccc(Cl)cn2)c1 [Betrixaban maleate] was tested. Which cell death did it give?
**A.** inactive: 0.577

**Q.** CCC(CC)CC1(C(=O)Nc2ccccc2SC(=O)C(C)C)CCCCC1 [Dalcetrapib] was tested. Which cell death did it give?
**A.** active: 0.779

From the supplement of paper PMC12872613
